Drawing on PMC10226619, this text covers binding for two molecules.

For this test, the target named is T1, Ada3 with a hexahistidine tag (recombinant) (Saccharomyces cerevisiae) (UniProt P32494).
T1 sequence: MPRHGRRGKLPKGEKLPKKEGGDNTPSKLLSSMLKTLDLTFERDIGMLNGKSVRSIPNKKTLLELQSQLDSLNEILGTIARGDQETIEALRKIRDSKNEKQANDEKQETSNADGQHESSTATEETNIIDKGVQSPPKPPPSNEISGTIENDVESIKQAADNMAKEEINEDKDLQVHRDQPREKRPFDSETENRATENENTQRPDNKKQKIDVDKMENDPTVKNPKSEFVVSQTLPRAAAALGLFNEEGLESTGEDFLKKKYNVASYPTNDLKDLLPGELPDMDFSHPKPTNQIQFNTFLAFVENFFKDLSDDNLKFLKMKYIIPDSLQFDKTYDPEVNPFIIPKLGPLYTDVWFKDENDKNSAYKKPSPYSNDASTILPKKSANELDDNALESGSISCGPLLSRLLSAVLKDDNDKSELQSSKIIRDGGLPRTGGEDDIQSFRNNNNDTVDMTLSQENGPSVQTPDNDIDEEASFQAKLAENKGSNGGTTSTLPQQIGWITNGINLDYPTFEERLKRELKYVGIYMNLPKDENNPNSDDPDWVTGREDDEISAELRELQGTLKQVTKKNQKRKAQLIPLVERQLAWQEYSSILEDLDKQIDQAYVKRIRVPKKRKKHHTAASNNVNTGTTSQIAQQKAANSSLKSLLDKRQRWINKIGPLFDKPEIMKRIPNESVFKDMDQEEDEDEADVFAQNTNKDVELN
Put plainly: co-purification (Ni-NTA, anion exchange); Gcn5, Ada2 (WT or ΔSWIRM) and His-tagged Ada3 co-expressed in E. coli; batch Ni-NTA by the hexahistidine tag on Ada3, then Source Q.

No constants are given. Whether binding was seen depends on the method and setting. Some entries that bind do so weakly or less than the wild type. Where a sequence is shown, tags or fusion partners need not be part of it.

B1: Ada2 ΔSWIRM (without amino acids 349–434, recombinant) (protein, UniProt Q02336)
chain: MSNKFHCDVCSADCTNRVRVSCAICPEYDLCVPCFSQGSYTGKHRPYHDYRIIETNSYPILCPDWGADEELQLIKGAQTLGLGNWQDIADHIGSRGKEEVKEHYLKYYLESKYYPIPDITQNIHVPQDEFLEQRRHRIESFRERPLEPPRKPMASVPSCHEVQGFMPGRLEFETEFENEAEGPVKDMVFEPDDQPLDIELKFAILDIYNSRLTTRAEKKRLLFENHLMDYRKLQAIDKKRSKEAKELYNRIKPFARVMTAQDFEEFSKDILEELHCRARIQQLQEWRSNGLTTLEAGLKYERDKQARISSFEKFGASTAASLSEGNSRYRSNSAHRSNAEYSQNYSEN
In the case of B1, the binding entry is on record as “binds”.

B2: Ada2 (wild type, recombinant) (protein, UniProt Q02336 1-434)
chain: MSNKFHCDVCSADCTNRVRVSCAICPEYDLCVPCFSQGSYTGKHRPYHDYRIIETNSYPILCPDWGADEELQLIKGAQTLGLGNWQDIADHIGSRGKEEVKEHYLKYYLESKYYPIPDITQNIHVPQDEFLEQRRHRIESFRERPLEPPRKPMASVPSCHEVQGFMPGRLEFETEFENEAEGPVKDMVFEPDDQPLDIELKFAILDIYNSRLTTRAEKKRLLFENHLMDYRKLQAIDKKRSKEAKELYNRIKPFARVMTAQDFEEFSKDILEELHCRARIQQLQEWRSNGLTTLEAGLKYERDKQARISSFEKFGASTAASLSEGNSRYRSNSAHRSNAEYSQNYSENGGRKKNMTISDIQHAPDYALLSNDEQQLCIQLKILPKPYLVLKEVMFRELLKTGGNLSKSACRELLNIDPIKANRIYDFFQSQNWM
With B2, the binding result was “binds”.
